Data: PubChem BioAssay AID504467 (National Center for Advancing Translational Sciences (NCATS), 2011)
Hit rate of the full screen: of about 330,000 compounds, about 7,700 (2.3%) were called active. This list was built around the results that the source calls inconclusive (neither active nor inactive); the mix of calls is not that of the screen. Calls follow the shape of the dose curve; as a rule, active = well fitted inhibition curve with a large enough effect; inconclusive = small, poorly fitted or top-dose-only effect, or effect the other way; inactive = flat fitted curve, though single readings scatter. A potency beside an inconclusive call is a rough fit, not a confirmed value.

Assay: qHTS screen for small molecules that inhibit ELG1-dependent DNA repair in human embryonic kidney (HEK293T) cells expressing luciferase-tagged ELG1; also: nearly all actives have a fitted effect of over 55% in size
Details: HEK293T ELG1-luciferase reporter, luminescence, 16 h, DNA damage induced by 5-fluorouridine; activity change, negative = inhibition: at 46.1 µM (top of the series)
Procedure, shortened: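 DMSO vehicle served as the neutral condition. Each well held 2,000 cells given 5-fluorouridine plus compound; after 16 hr at 37 °C/5% CO2, ONE-Glo was added and luciferase measured 30 min later.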
% is scaled to controls: 0 for no effect and ±100 for the full control effect; potency is read from the fitted curve at half-maximal effect.

SMILES	Potency	activity change, negative = inhibition
C=CCOc1ccc(C2C(C(=O)c3ccco3)=C(O)C(=O)N2Cc2cccnc2)cc1 (centres undefined)	inconclusive: 20.6 µM [activator, partial curve, poor fit]	–
O=C(Nc1cccc2c1CCCC2)c1cc([N+](=O)[O-])ccc1Cl	inconclusive: 25.9 µM [inhibitor, single point]	–
Cc1ccc(C(=O)N[C@@H](C)CN2C3=NC[C@H](C(C)C)N3C[C@H]2Cc2ccc(O)cc2)cc1Br	–	inactive: -0.401%
O=C(Cc1nc2ccccc2[nH]1)c1cccc([N+](=O)[O-])c1	active: 4.11 µM	–
O=C(NC(=S)Nc1ccccc1N1CCCC1)c1cccs1	–	inactive: 10.1%
COc1ccccc1C(=O)NCCn1cc(SCC(=O)Nc2nnc(C)s2)c2ccccc21	inconclusive: 13 µM [inhibitor, partial curve, poor fit]	–
Cc1c(/C=N/O)c2ccccn2c1C=O	–	inactive: -21.1%
Cc1ccc(C(=O)N(CN2CCCC2=O)c2ccc(F)cc2)cc1	inconclusive: 16.4 µM [activator, single point]	–
CCOC(=O)C1CCN(C(=O)c2sc3nc(-c4ccc(F)cc4)cn3c2C)CC1	inconclusive: 20.6 µM [inhibitor, single point]	–
O=C(CNc1ccccc1)N/N=C/c1cc([N+](=O)[O-])ccc1N1CCCC1	inconclusive: 13 µM [inhibitor, partial curve]	–
Cc1sc2ncnc(SCC(=O)Nc3ccc(CN4CCCC4)cc3)c2c1C	–	inactive: -2.86%
O=C(NCCc1ccc(F)cc1)c1cccc2c1C(=O)c1ccc(N3CCC(Cc4ccccc4)CC3)cc1S2(=O)=O	inconclusive: 1.83 µM [inhibitor, partial curve]	–
CCc1ccc(OCC(=O)O/N=C(\N)c2cccnc2)cc1	inconclusive: 23.1 µM [activator, single point]	–
CCc1ccc(NC(=O)C[n+]2cc(-c3ccc(C)cc3)n3c2CCC3)cc1	active: 11.6 µM	–
CCOc1ccc(C(=O)NCC2OCCc3ccccc32)cc1 (centres undefined)	inconclusive: 29.1 µM [activator, single point]	–
Cc1ccc(/C=N/NC(=O)c2ccco2)cc1	inconclusive: 8.2 µM [activator, partial curve]	–
CC1(C)OC(=O)C(=CNNc2c(Cl)cc(Cl)cc2Cl)C(=O)O1	inconclusive: 29.1 µM [activator, single point]	–
CC(=O)COc1ccc2cc(-c3ccccc3)c(=O)oc2c1	inconclusive: 2.06 µM [activator, full curve]	–
COCCNS(=O)(=O)c1ccc2c3c(cccc13)C(=O)N2C	inconclusive: 23.1 µM [activator, partial curve]	–
Cc1nc(Nc2ccc(Cl)c(Cl)c2)sc1C(=O)Nc1ccccc1	inconclusive: 16.4 µM [inhibitor, partial curve, poor fit]	–
CC(C)Oc1ccc(-c2cc(C(=O)NCCN3CCOCC3)c3ccccc3n2)cc1	inconclusive: 7.94 µM [activator, partial curve, poor fit]	–
Brc1ccc(-c2ccc(C3Nc4cccc5cccc(c45)N3)o2)cc1	–	inactive: 14.4%
Cc1ccc(-c2noc(CCCc3ccccc3)n2)cc1	inconclusive: 20.6 µM [activator, partial curve]	–

SMILES	Potency	activity change, negative = inhibition
O=C(COc1ccc2c(-c3ccccc3)cc(=O)oc2c1)NC(Cc1c[nH]c2ccccc12)C(=O)O (centres undefined)	inconclusive: 18.3 µM [activator, partial curve, poor fit]	–
c1ccc(OCc2nn3c(-c4ccccn4)nnc3s2)cc1	inconclusive: 20 µM [activator, partial curve, poor fit]	–
NC(=O)N/N=C/c1cccc(C(F)(F)F)c1	–	inactive: -10.6%
CN1CCc2c(n(CC(O)CN3CCN(CCO)CC3)c3ccccc23)C1=O (centres undefined)	inconclusive: 7.3 µM [activator, partial curve, poor fit]	–
Cc1ccc(C)c(NC(=O)C(Sc2nncn2C)c2ccccc2)c1 (centres undefined)	–	inactive: 4.39%
CCC(=O)Nc1ccc2c(c1)nc1n2CCSC1	inconclusive: 16.4 µM [activator, single point]	–
O=C(COc1ccccc1)Nc1ccc(-c2ccc(N3CCOCC3)nn2)cc1	–	inactive: 20.1%
O=C(COc1ccc2ccccc2c1)N1CCN(C(=O)c2ccc([N+](=O)[O-])cc2)CC1	inconclusive: 29.1 µM [inhibitor, single point]	–
COc1ccccc1OCCNc1nc2c(c(=O)n(C)c(=O)n2C)n1C	inconclusive: 32.6 µM [inhibitor, single point]	–
CC(C)CC1CC(C)(c2csc(NNC(=O)c3ccccc3)n2)OC1=O (centres undefined)	inconclusive: 18.3 µM [inhibitor, partial curve]	–
CCCc1c(C)nc2ccccc2c1SCCC#N	active: 23.1 µM	–
O=S(=O)(Nc1nc2ccccc2nc1Nc1ccc(N2CCOCC2)cc1)c1cc(Cl)ccc1Cl	inconclusive: 18.4 µM [inhibitor, partial curve]	–
Cc1cccc(C)c1NC(=O)CNC(=O)c1ccc(N2CCCC2=O)cc1	–	inactive: 8.89%
CC(C)(C)N(Cc1cc2ccccc2[nH]c1=O)C(=O)C1CCCCC1	inconclusive: 18.4 µM [activator, single point]	–
Cc1cc(C)cc(NC(=O)N2CCNC(=O)C2CC(=O)Nc2cc(Cl)ccc2Cl)c1 (centres undefined)	–	inactive: -19.2%
CCOC(=O)Nc1nc(-c2ccccc2)c(C(=O)c2ccc(Cl)cc2)s1	–	inactive: 11%
COc1ccc(-n2c(-c3ccc(C)cc3)n[nH]c2=S)cc1	–	inactive: 14.6%
Cc1cccc(NC(=O)CSc2nnc(-c3ccco3)c(-c3ccco3)n2)c1	–	inactive: -0.382%
CCOC(=O)c1c(C)[nH]c(C(=O)N(C)Cc2cccc(OC)c2OC)c1C	active: 16.4 µM	–
CC(C)Cn1c(N)c(C(=O)CSc2ccc3c(c2)OCCO3)c(=O)n(C)c1=O	active: 7.31 µM	–
COCCN(CCOC)c1nc(N)c2c(N)nc3c(c2c1C#N)CC(=O)N3Cc1ccc(Cl)cc1	active: 5.17 µM	–
Cc1c(NC(=O)CN2CCN(c3ccc([N+](=O)[O-])cc3)CC2)c(=O)n(-c2ccccc2)n1C	inconclusive: 11.6 µM [inhibitor, partial curve, poor fit]	–
N#C/C(=N/O)c1nc(-c2ccc(F)cc2)cs1	–	inactive: 2.09%

Complete entries from above. Order of values: Potency	activity change, negative = inhibition
CC1(C)OC(=O)C(=CNNc2c(Cl)cc(Cl)cc2Cl)C(=O)O1 in the list: inconclusive: 29.1 µM [activator, single point]	–
CCc1ccc(NC(=O)C[n+]2cc(-c3ccc(C)cc3)n3c2CCC3)cc1 in the list: active: 11.6 µM	–
O=C(NCCc1ccc(F)cc1)c1cccc2c1C(=O)c1ccc(N3CCC(Cc4ccccc4)CC3)cc1S2(=O)=O in the list: inconclusive: 1.83 µM [inhibitor, partial curve]	–
O=C(COc1ccc2c(-c3ccccc3)cc(=O)oc2c1)NC(Cc1c[nH]c2ccccc12)C(=O)O (centres undefined) in the list: inconclusive: 18.3 µM [activator, partial curve, poor fit]	–

(continued)

SMILES	Potency	activity change, negative = inhibition
COc1nn(C(C)C(=O)N2N=C(C(F)F)CC2(O)C(F)F)cc1[N+](=O)[O-] (centres undefined)	inconclusive: 0.82 µM [inhibitor, partial curve, poor fit]	–
CCOC(=O)c1ccc(NC(=S)N2CCC(C(N)=O)(N3CCCCC3)CC2)cc1	inconclusive: 16.4 µM [inhibitor, partial curve, poor fit]	–
CCNc1nnc(CSc2nc3ccccc3s2)s1	inconclusive: 18.4 µM [activator, partial curve]	–
O=C(/C=C/c1ccccc1)NC1CCSC1=O (centres undefined)	inconclusive: 20.6 µM [activator, single point]	–
COc1cc(OC)cc(C(=O)N2CCN(c3ccc(N4CCOCC4)nn3)CC2)c1	–	inactive: 14.9%
COC(=O)CC1COc2ccccc2N1S(=O)(=O)c1ccc(OC)cc1 (centres undefined)	inconclusive: 3.66 µM [inhibitor, full curve, poor fit]	–
CCOC(=O)c1c(NC(=O)COc2ccccc2F)sc2c1CC(C)(C)NC2(C)C	inconclusive: 8.2 µM [inhibitor, single point]	–
COc1cccc(CNC(=O)CCCC(=O)NC(C)CCc2ccccc2)c1 (centres undefined)	–	inactive: 13%
CCN(CC)c1ccc(-n2c(C)c(C(C)=O)c(C(C)=O)c2C)cc1	active: 10.3 µM	–
Cc1cc(C)cc(NC(=O)CCc2c(C)nn(-c3ccc(N4CCCCC4)nn3)c2C)c1	inconclusive: 20.6 µM [inhibitor, single point]	–
CC(=O)Nc1sc(C)c(C)c1C(=O)OCC(=O)N(CCC#N)c1cc(C)cc(C)c1	inconclusive: 18.3 µM [inhibitor, single point]	–
Cc1cccc(Sc2c(C=O)c3ccccc3n2C)c1	–	inactive: -26.7%
COc1ccc(-c2nc(C(N)=O)c3[nH]c(=O)n(-c4cccc(Cl)c4)c3n2)cc1OC	inconclusive: 9.2 µM [inhibitor, partial curve]	–
O=C(Nc1ccc(S(=O)(=O)N2CCOCC2)cc1)C1CCN(S(=O)(=O)c2ccccc2)CC1	inconclusive: 0.259 µM [inhibitor, single point]	–
CCCC(=O)NC(c1ccc(C)cc1)c1ccc2cccnc2c1O (centres undefined)	inconclusive: 3.66 µM [inhibitor, single point]	–
COc1cccc(-c2nc(CS(=O)(=O)CC(=O)NCCc3ccc(OC)cc3OC)c(C)o2)c1	active: 23.1 µM	–
CC(C)C(c1nnnn1C(C)(C)C)N1CCC(Cc2ccccc2)CC1 (centres undefined)	inconclusive: 1.46 µM [inhibitor, partial curve, poor fit]	–
NNC(=O)CCCCCCCCCCOCCCCO	inconclusive: 5.17 µM [inhibitor, single point]	–
Cc1ccc(NC(=O)c2noc3c2CCC3)cc1C	inconclusive: 2.31 µM [activator, partial curve]	–
Clc1ccc(Cn2nc(-c3ccccc3)nc2-c2ccccc2)cc1	inconclusive: 9.2 µM [activator, partial curve, poor fit]	–
C=CCC[C@H](Cc1ccc(F)cc1)C(=O)OC[C@@H](Cc1c[nH]c2ccccc12)NC(=O)[C@@H](CC=C)CC(=O)N(CCO)Cc1ccccc1	active: 25.9 µM	–
Nc1nc2ncc(C(=O)c3cc(F)ccc3O)cc2s1	inconclusive: 3.66 µM [activator, partial curve, poor fit]	–
CNc1oc(/C=C/c2ccccc2)nc1C#N	inconclusive: 5.17 µM [activator, partial curve]	–
